# Values quoted from earlier work in patent US20140038953A1, “COMPOSITIONS AND METHODS FOR CARDIOVASCULAR DISEASE” (THE GENERAL HOSPITAL CORPORATION, priority 2011, published 2014).
# At least one compound was matched to its structure with a doubt left.
# System: BMP type I receptors, ALK2, ALK3, and ALK6
# Settings: Yu et al. Nat. Chem. Biol. 2008; cited from earlier work
smiles,measurement,value
c1cc(-c2cnn3cc(-c4ccc(OCCN5CCCCC5)cc4)cnc23)ccn1 [Dorsomorphin],inhibition of BMP type I receptor activity,"inhibits the activity of the BMP type I receptors, ALK2, ALK3, and ALK6"
same,relative inhibition of ALK2 and ALK3 versus ALK6,inhibits ALK2 and ALK3 to a greater extent than it does ALK6
